Data as given in PubChem BioAssay AID445 (National Center for Advancing Translational Sciences (NCATS), 2006).
This is one part of the list. These are further read-outs of the screen, such as a control signal, another cell line or another target. No call is given for them. Most of these compounds were active or inconclusive in the main read-out, so they are no random draw. The note in brackets gives the kind of curve behind each potency; many fits are weak.

Test: IkB Signaling
Conditions: ABC-DLBCL IkBa-CBG/CBR dual luciferase ratio (green luciferase fused to IkBa over red control in OCI-Ly3 lymphoma cells), 4 h
How it was run: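 In this assay, an IκBα–CBG68 fusion accumulates when IKK-driven degradation is blocked; native CBR normalizes for cell number. OCI-Ly3 cells were treated 4 h with compound and doxycycline, then green and red light read after Chroma-Glo addition.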

[1] = measured here: control luc red channel
[2] = measured here: IkB-luc green channel

Structure (SMILES)	AC50 [1]	AC50 [2]
O=C(Nc1ccc2c(c1)OCO2)c1cccn(Cc2cccc(F)c2)c1=O	20 µM [falling, partial curve]	–
Cc1ccc(Cn2nnnc2CN2CCC(n3nnc4cc(C(F)(F)F)ccc43)CC2)cc1	31.6 µM [falling, partial curve]	–
Cn1cc(/C=C/c2nc3ccccc3c(=O)n2-c2ccccc2)c2ccccc21	7.94 µM [falling, partial curve]	–
Nc1c(C(=O)Nc2ccc(Cl)cc2)sc2nc3c(cc12)N1CCC3CC1	10 µM [falling, partial curve]	–
COc1cc(C(c2c(O)c3ccccc3oc2=O)c2c(C)n(C)n(-c3ccccc3)c2=O)ccc1O (stereo not drawn)	2.51 µM [falling, full curve]	–
O=c1c2ccccc2nc(/C=C/c2ccccc2)n1-c1ccccc1F	31.6 µM [falling, partial curve]	–
Cc1cccc(N2CCc3c2nc2ccccc2c3N)c1	39.8 µM [falling, single point]	–
C=CCN1C[C@H](C)N([C@H](c2ccc(C(=O)N(CC)CC)cc2)c2cccc(OC)c2)C[C@H]1C	3.16 µM [rising, full curve, poor fit]	–
O=C1CC(c2ccc(F)cc2)c2c(c3ccccc3oc2=O)O1 (stereo not drawn)	10 µM [falling, partial curve]	–
COc1ccc(CCNCc2ccc3c(c2)n(C)c(=O)n3C)cc1	20 µM [rising, partial curve]	–
CCOc1ccc(NC(=O)c2cccn(Cc3cccc(Cl)c3)c2=O)cc1	0.316 µM [rising, partial curve]	–
Cc1oc(-c2ccccc2Cl)nc1CN1C(=O)CN=C(c2ccccc2)c2cc(Cl)ccc21	10 µM [falling, partial curve]	–
N#Cc1cccc(NC(=O)c2sc3nc4c(cc3c2N)N2CCC4CC2)c1	20 µM [falling, partial curve]	–
COc1ccc(NC(=O)CCc2nc(C3=CCN(Cc4cccc(Cl)c4)CC3)no2)cc1OC	39.8 µM [falling, single point]	–
O=C1CC(N2CC=C(c3ccccc3)CC2)C(=O)N1c1ccc(F)cc1 (stereo not drawn)	7.94 µM [falling, partial curve]	–
O=C(Cn1ncc2c3ccccc3n(Cc3cccc(Cl)c3)c2c1=O)N1CCC2(CC1)OCCO2	20 µM [falling, partial curve]	–
Cc1ccc(-n2nc(C)c3c2NC(=O)CSC3c2ccc(O)cc2)cc1Cl (stereo not drawn)	10 µM [falling, partial curve]	–
CCCCn1c(O)c(C(CC)=NCc2ccc3c(c2)OCO3)c(=O)[nH]c1=O	20 µM [falling, partial curve]	–
CN(C(=O)Cc1ccc(Cl)c(Cl)c1)[C@H](CN1CCCC1)c1ccccc1	39.8 µM [falling, single point]	–
CCCC12CN3CC(C)(CN(C1)C3c1ccccn1)C2=O (stereo not drawn)	39.8 µM [falling, single point]	–

One compound at a time, from the list above. Values in the order: AC50 [1]	AC50 [2]
`CCCC12CN3CC(C)(CN(C1)C3c1ccccn1)C2=O` (stereo not drawn) is listed as 39.8 µM [falling, single point]	–
`C=CCN1C[C@H](C)N([C@H](c2ccc(C(=O)N(CC)CC)cc2)c2cccc(OC)c2)C[C@H]1C` is listed as 3.16 µM [rising, full curve, poor fit]	–
`CCOc1ccc(NC(=O)c2cccn(Cc3cccc(Cl)c3)c2=O)cc1` is listed as 0.316 µM [rising, partial curve]	–

The listing continues:

Structure (SMILES)	AC50 [1]	AC50 [2]
CCCC1(CCC)C(=O)NC(=NCc2ccccc2)NC1=O	25.1 µM [falling, partial curve]	–
COC(=O)/C=C\C(=O)N[C@@H]1CC[C@@]2(O)[C@H]3Cc4ccc(O)c5c4[C@@]2(CCN3CC2CC2)[C@@H]1O5	39.8 µM [falling, partial curve]	–
COc1ccc(NC(C)=O)cc1NC(=O)c1cccn(Cc2ccccc2)c1=O	39.8 µM [falling, single point]	–
Cc1ccc(Cn2nnnc2CN2CCC(n3nnc4cc(C)ccc43)CC2)cc1	39.8 µM [falling, single point]	–
C[C@H]1C[C@@H](C)C(=O)[C@@H]([C@H](O)CC2CC(=O)NC(=O)C2)C1	0.631 µM [falling, full curve]	0.398 µM [rising, full curve, poor fit]
COC(C)(C)CCCC(C)C/C=C/C(C)=C/C(=O)OC(C)C (stereo not drawn)	0.126 µM [falling, full curve]	–
Cc1ccccc1-n1c(/C=C/c2ccc(O)cc2)nc2ccccc2c1=O	10 µM [falling, partial curve]	–
CCOC(=O)C1=C(N)Oc2c(c(=O)oc3ccccc23)C12C(=O)N(C)c1ccccc12 (stereo not drawn)	0.794 µM [falling, partial curve]	–
Cc1ccc(Cn2cccc(C(=O)Nc3nnc(C)s3)c2=O)cc1	1 µM [rising, full curve, poor fit]	5.01 µM [rising, single point]
CC(C)CCOC(=O)c1c(N)n(CC2CCCO2)c2nc3ccccc3nc12 (stereo not drawn)	20 µM [falling, partial curve, poor fit]	–
CCN(CC)C(=O)c1ccc(NC(=O)Cn2nc(-c3ccc(C)cc3)c3ccccc3c2=O)cc1	20 µM [falling, single point]	–
CN1C[C@H](CNC(=O)OCc2ccccc2)C[C@H]2c3cccc4c3c(cn4C)C[C@@H]21	39.8 µM [falling, single point]	–
CN(C)P(=O)(C(Cl)=C(N1CCCCC1)N1CCCCC1)N(C)C	2.51 µM [rising, full curve]	–
COc1ccc(C[C@@H]2NC[C@H](O)[C@H]2OC(C)=O)cc1	1.26 µM [falling, full curve]	0.251 µM [rising, single point]
CN(CCc1ccc(Cl)c(Cl)c1)[C@H]1CCCC[C@H]1N1CCCC1	39.8 µM [falling, single point]	–
CCCCOC(=O)c1ccccc1C(=O)OCc1ccccc1	0.316 µM [falling, full curve]	–
O=C(O)CCCc1ccc(N(CCCl)CCCl)cc1	39.8 µM [rising, partial curve]	–
COc1ccc(Cn2c(N)c(C(=O)NCc3ccco3)c3nc4ccccc4nc32)cc1	–	25.1 µM [rising, partial curve]
c1ccc2c(c1)OC[C@@H](C1=NCCN1)O2	31.6 µM [falling, partial curve]	5.01 µM [rising, full curve]
